PubChem BioAssay AID504744 – Drosophila RNAi Screening Center, 2011
In all, the deposit lists about 23,000 reagents; this is a random part of those with a known target gene and a result. Over the whole deposit, 98 (0.43%) are marked active. 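Only hit calls are given; the phospho-dAkt signals, z-scores and hit direction were not deposited.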 Names joined by + are all predicted targets of the reagent. Reagent sequences are not shown.

Aim: 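Uncover factors, including feedback loops, that control dAkt activation in fly cells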 (primary screen)
Cell system: Drosophila Kc167 cells
Reagent: long dsRNA against Drosophila genes, 250 ng dsRNA per well of a 384-well plate
Timing: 3 days of knock-down, then overnight serum-free starvation before stimulation
Conditions: bovine insulin at 387 nM for 10 minutes after 12 h without serum
Read-out: 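Per-well phospho-dAkt level from an in-cell fluorescent antibody stain, divided by a DNA-dye signal; log2 residuals turned into z-scores that take cell number into account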
Call rule: 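Hit in the insulin screen when the two-replicate mean z-score is more extreme than plus or minus 2.5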

gene knocked down	DRSC id	Call
Kua	DRSC02100	inactive
CG7653	DRSC01886	inactive
CG17024 (retired record)	DRSC02562	inactive
Polr2G	DRSC16068	inactive
CG14628	DRSC18626	inactive
CG46441	DRSC15561	inactive
Nab2	DRSC14158	inactive
CG31496	DRSC12547	inactive
Ir85a	DRSC14382	inactive
CG15522	DRSC15059	inactive
CG5758	DRSC02889	inactive
CG5758	DRSC02890	inactive
ifc	DRSC03549	inactive
Nlp	DRSC16759	inactive
CG12241	DRSC14481	inactive
Pex16	DRSC11750	inactive
CG42715 (retired record)	DRSC05499	inactive
CG1113	DRSC12163	inactive
CG18605	DRSC06772	inactive
Khc	DRSC07448	inactive
CG33937 (retired record)	DRSC15148	inactive
l(2)k09022	DRSC02108	inactive
stol	DRSC01956	inactive
CG8675	DRSC20117	inactive
CG31676	DRSC02387	inactive
CG9452	DRSC11075	inactive
Grl36a	DRSC21748	inactive
Ir94b	DRSC21439	inactive
e	DRSC16936	inactive
CG40045	DRSC21232	inactive
Scr	DRSC12604	inactive
shps	DRSC14614	inactive
CG13445	DRSC09992	inactive
CG14736	DRSC14956	inactive
Hr51	DRSC06627	inactive
Hr51	DRSC22829	inactive
CG9672	DRSC20201	inactive
CadN2 + CG42830	DRSC03062	inactive
CadN2 + CG42830	DRSC03063	inactive
CadN2 + CG42830	DRSC03064	inactive
Ir75a	DRSC10188	inactive
CG12620	DRSC02177	inactive
Gdi	DRSC03330	inactive
CG4497	DRSC02754	inactive
CG13344	DRSC06378	inactive
CG5050	DRSC02807	inactive
cu	DRSC15643	inactive
cu	DRSC15648	inactive
CG12811	DRSC14549	inactive
CG14260	DRSC14755	inactive
Surf1	DRSC11295	inactive
Surf1	DRSC11394	inactive
rgr	DRSC06487	inactive
rgr	DRSC07229	inactive
CG30056	DRSC21752	inactive
CG6830	DRSC16124	inactive
CG7551	DRSC10876	inactive
CG7276	DRSC10797	inactive
Gmer	DRSC04376	inactive
RpS14b	DRSC18711	inactive
CG14451	DRSC11708	inactive
Acp24A4	DRSC22352	inactive
cyr	DRSC18017	inactive
cyr	DRSC18018	inactive
cyr	DRSC18021	inactive
CG12795	DRSC00354	inactive
CG11353	DRSC08182	inactive
CG15712	DRSC06583	inactive
rtv	DRSC19541	inactive
CG3788	DRSC04418	inactive
strat	DRSC03069	inactive
CG12129	DRSC06105	inactive
TSG101	DRSC11098	inactive
Col4a1	DRSC03291	inactive
Rh7	DRSC10529	inactive
lost	DRSC12002	inactive
lost	DRSC12234	inactive
lost	DRSC21987	inactive
Asx	DRSC05924	inactive
CG34355	DRSC13639	inactive
CG34355	DRSC14520	inactive
CG34355	DRSC14668	inactive
CG34355	DRSC21687	inactive
CG41520	DRSC21102	inactive
CG41520	DRSC21103	inactive
zyd	DRSC20716	inactive
CG7236	DRSC03037	inactive
CG15306	DRSC17993	inactive
CG15306	DRSC18240	inactive
side-III	DRSC12155	inactive
side-III	DRSC12263	inactive
side-III	DRSC12264	inactive
5-HT1A	DRSC05030	inactive
Rph	DRSC17790	inactive
CG32026	DRSC08950	inactive
Wdr59	DRSC02771	inactive
CG13272	DRSC02249	inactive
CG13272	DRSC22910	inactive
mago	DRSC04703	inactive
CG15024	DRSC08478	inactive
Sec20	DRSC12295	inactive
hry	DRSC11353	inactive
Caf1-180	DRSC17807	inactive
CG12617	DRSC02176	inactive
Cyp4e2	DRSC07371	inactive
Osi4	DRSC12134	inactive
CoRest	DRSC19881	inactive
CoRest	DRSC21626	inactive
CoRest	DRSC22305	inactive
Crg-1	DRSC22882	inactive
CG31220	DRSC22248	inactive
mars	DRSC06656	inactive
Orc5	DRSC03390	inactive
PH4alphaNE2	DRSC16544	inactive
Ptp10D	DRSC20272	inactive
Cby	DRSC14591	inactive
CG9135	DRSC03144	inactive
Yip1d1	DRSC02166	inactive
tho2	DRSC00646	inactive
shv	DRSC00640	inactive
shv	DRSC22122	inactive
mRpL35	DRSC14586	inactive
CG32100	DRSC09725	inactive
CG32100	DRSC10331	inactive
Chrac-16	DRSC20343	inactive
snu	DRSC16589	inactive
CG3277	DRSC00588	inactive
Cyp4d14	DRSC18457	inactive
Mipp1	DRSC11223	inactive
CG18131	DRSC00517	inactive
CAH7	DRSC15524	inactive
CG13970	DRSC02311	inactive
holn1	DRSC02827	inactive
holn1	DRSC22822	inactive
Dp	DRSC07402	inactive
p38c	DRSC22939	inactive
CG44422	DRSC18885	inactive
CG44422	DRSC19380	inactive
CG44422	DRSC19480	inactive
Blimp-1	DRSC10496	inactive
CG15628	DRSC00256	inactive
CG15628	DRSC00463	inactive
kmg	DRSC02829	inactive
CG2924	DRSC18525	inactive
Sf3b3	DRSC08370	inactive
CG15740	DRSC19706	inactive
DEF8	DRSC09840	inactive
Cbp80	DRSC18450	inactive
Trap1	DRSC05019	inactive
kri	DRSC10515	inactive
CG11106	DRSC19381	inactive
CG10681	DRSC09777	inactive
CG10681	DRSC21484	inactive
trp	DRSC17088	inactive
Klp3A	DRSC18676	inactive
Klp3A	DRSC21625	inactive
Ask1	DRSC16789	inactive
Ask1	DRSC21697	inactive
CheB38b	DRSC22874	inactive
CG31861	DRSC21665	inactive
RhoGAP93B	DRSC15488	inactive
mthl7	DRSC10852	inactive
CheB53a	DRSC06625	inactive
CG10418	DRSC09720	inactive
CG6695	DRSC16098	inactive
CG11178	DRSC19396	inactive
CG30109 + CG30108	DRSC05674	inactive
Gr39b	DRSC01848	inactive
brwl	DRSC01080	inactive
brwl	DRSC02729	inactive
CG17221	DRSC00487	inactive
CG7120	DRSC10773	inactive
CG13996	DRSC02328	inactive
CG18281	DRSC11742	inactive
Grip	DRSC17940	inactive
Grip	DRSC18395	inactive
CG16935	DRSC06638	inactive
CG14448	DRSC11705	inactive
CG12493	DRSC08279	inactive
CG4781	DRSC04488	inactive
EMC1	DRSC15455	inactive
CG34198	DRSC05803	inactive
CG17597	DRSC02630	inactive
CG6276	DRSC16007	inactive
CG1824	DRSC19796	inactive
Gr39a	DRSC01841	inactive
Gr39a	DRSC01842	inactive
CG9270	DRSC03182	inactive
RpS2	DRSC03614	inactive
Sms	DRSC10408	inactive
CG5280	DRSC10498	inactive
CG5280	DRSC22835	inactive
CG4757	DRSC14130	inactive
Rpe	DRSC06407	inactive
CG8401	DRSC07165	inactive
CG34047 (retired record)	DRSC07857	inactive
CG34047 (retired record)	DRSC21689	inactive
CCT8	DRSC07130	inactive
CG13539	DRSC04181	inactive
CG10462	DRSC02058	inactive

Records listed so far whose gene name starts with P or p (5):
gene knocked down	DRSC id	Call
Polr2G	DRSC16068	inactive
Pex16	DRSC11750	inactive
PH4alphaNE2	DRSC16544	inactive
Ptp10D	DRSC20272	inactive
p38c	DRSC22939	inactive
